Residue numbers refer to the chain shown, from its start. No constants are given. Whether binding was seen depends on the method and setting. Some results given as binding are weak or reduced against the parent protein; the word gives no strength.
B1: 69D09 (scFv)
scFv: EVRLLESGGGLVQPGGSLRLSCAASGFTFRPRAMAWVRQAPGKGLEWVSSISAQGASAYYADSVKGRFTISRDNSKNTLYLQMNSLRAEDTAVYYCARDLSVSGFGPWGRGTMVAVSSGGGGPGGGGSGGGRSALSYELTQPPSSSGTPGQRVTISCSGSSSNIGRHTVSWYQQVPGTAPKLLIYSDDHRPSGVPDRFSASKSGTSASLTITGLQSEDEADYYCAAWDDSLNGPWVFGGGTKLTVLG
B2: 20G02 (scFv)
scFv: EVQLLESGGGLVQPGGSLRLSCAASGFTFSSYAMSWARQAPGKGLEWVSAISGSGGSTYYADSVKGRFTISRDNSKNTLYLQMNSLRAEDTAVYYCARFSRNSWENWGRGTLVTVSSGGGGSGGGGSGGGGSAQAVVIQEPSFSVSPGGTVTLTCGLSSGSVSTSNYPSWHRQTPGQAPRTLIYNTNTRSSGVPDRFSGSILGNKAALTITGAQADDESDYYCALHMRSGLSVFGGGTKVTVLG
B3: 20G11 (scFv)
scFv: EVQLLESGGGLVQPGGSLRLSCAASGFTFSSYAMSWARQAPGKGLEWVSAISGSGGSTYYADSVKGRFTISRDNSKNTLYLQMNSLRAEDTAVYYCARWVGGNEGSWSDWGQGTLVTVSSGGGGSGGGGSGGGGSALNFMLTQPHSVSESPGKTVTISCTRSGGSIASNYVQWYQQRPGSVPTTLIYEDHKRPSGVPDRFSGSIDSSSNSASLTISGLKTEDEADYYCQSYDTSAWVFGGGTKLTVLG
B4: 72D09 (scFv)
scFv: EVQLLKSGGGLVQPGGSLRLSCAASGFTFSSYAMSWVRQAPGKGLEWVSAISGSGGSTYYADSVKGRFTISRDNSKNTLYLQMNSLRAEDTAVYYCARDLSAGFFDPWGRGTMVTVSSGGGGSGGGGSGGGGSAQSVLTQPPSSSGTPGQRVTISCSGSSSNIGRHTVSWYQQVPGTAPKLLIYSDDHRPSGVPDRFSASKSGTSASLTITGLQSEDEADYYCAAWDDSLNGPWVFGGGTKLTVLG
B5: 25A07 (scFv)
scFv: EVQLLESGGGLVQPEGSLRLSCAASGFTFSSYAMSWVRQAPGKGLEWVSAISGSGGSTYYADSVKGRFTISRDNSKNTLYLQMNSLRAEDTAVYYCARDLSDSKFDPWGRGSMVTVSSGGGGSGGGGSGGGGSALSYELTQPPSSSGTPGQRVTISCSGSSSNIGRHTVSWYQQVPGTAPKLLIYSDDHRPSGVPDRFSASKSGTSASLTITGLQSEDEADYYCAAWDDSLNGPWVFGGGTKLTVLG
B6: 32G10X (scFv)
scFv: QMQLVQSGAEVKKPGSSVKVSCKASGGIFSSYAISWVRQAPGQGLEWMGGIIPRFGTANYAQKFEGRVTITADESTSTAYMELSSLRSEDTAVYYCARDTVKSSGSYPYYNYYYMDVWGQGTLVTVSSSYVLTQPPSVSVSPGQTASITCSGDKLGDKYASWYQQKPGQSPVLVIHQDNKRPSGIPERFSGSNSGNTATLTISGTQAMDEADYYCQAWDSSLGVFGTGTKVTVLG
B7: 30E06X (scFv)
scFv: B6 scFv with T100Q, K102R, S103A, S106N, N111Y
B8: 16C10 (scFv)
scFv: QMQLVQSGAEVKKPGSSVKVSCKASGGIFSSYAISWVRQAPGQGLEWMGGIIPRFGTANYAQKFEGRVTITADESTSTAYMELSSLRSEDTAVYYCARDQVRASGSYPYYYYYYMDVWGQGTLVTVSSGGGGSGGGGSGGGGSALSYVLTQPPSMSVSPGQTARITCSGDKLGDKYASWYQQKPGQSPVLVIYQDSERPSGIPERFSGSNSGNTATLTIRGTQPLDEADYYCQTWDTSTGVFGGGTQLTVLS
B9: 16B06 (scFv)
scFv: EVQLVETGGGFVRPGGSLRLSCAASGFTFSNYAMTWFRQAPGKGLEWVSDISGDGIGTYNADSVKGRFTISRDNSNSILYLQMNSLRAEDTAVYYCAKDRWYTSGWIFDYWGKGTLVTVSSGGGGSGGGGSGGGGSAQAVLTQPSSMSGAPGQRVTISCTGSSSNIGAGYDVHWYQQLPGTAPKLLIYANNNRPSGVPARFSGSKSGTSAYLAIAGLQAADESDYYCQSYDSYLGDSVFGGGTKLTV
B10: 19B09 (scFv)
scFv: QVQLQESGPGLVKPSQTLSLTCSVSGGSISSRGYYWSWIRQHPGKGLEWIGYIYHNGNTYYNPSLKSRITMSVDTSKNQFSLKLSSVTAADTAVYFCARDKVVTGISGGFDLWGRGTLVTVSSGGGGSGGGGSGGGGSAQAVLTQPSSLSGAPGQRVTISCTGSSSNIGAGYDVHWYQHLPGTAPKLLIYGNNNRPSGVPDRFSGSKSGTSASLTITGLQAEDEADYYCQSDDSLSDSVVFGGGTQLTVLS

Sequences of proteins named here, by UniProt entry; tags and fusion partners are left off. A change or cut given only in a name is not applied to a line headed by its entry.
UniProt P49767: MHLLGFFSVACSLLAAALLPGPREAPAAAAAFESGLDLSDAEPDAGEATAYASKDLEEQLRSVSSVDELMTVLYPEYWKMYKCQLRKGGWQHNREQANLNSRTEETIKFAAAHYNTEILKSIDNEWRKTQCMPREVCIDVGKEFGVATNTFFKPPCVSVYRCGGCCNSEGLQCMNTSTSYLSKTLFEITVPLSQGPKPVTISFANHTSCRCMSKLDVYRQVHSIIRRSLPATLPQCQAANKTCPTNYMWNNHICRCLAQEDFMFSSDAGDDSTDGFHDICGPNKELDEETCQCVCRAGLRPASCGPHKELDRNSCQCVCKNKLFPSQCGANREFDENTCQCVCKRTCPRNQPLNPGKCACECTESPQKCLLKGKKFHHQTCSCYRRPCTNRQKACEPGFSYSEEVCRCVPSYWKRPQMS

Target: human vascular endothelial growth factor 2 (VEGF-2) (human) (UniProt P49767)
Experiment: phage display selection of scFvs; no assay details given

Row | Binder | binding
1 | B1 | binds
2 | B2 | binds
3 | B3 | binds
4 | B4 | binds
5 | B5 | binds
6 | B6 | binds
7 | B7 | binds
8 | B8 | binds
9 | B9 | binds
10 | B10 | binds
